We go through three molecules from publication PMC4373682.

Protein sequences, listed by entry. Tags and fused reporters are not part of them.
UniProt Q9JHL1: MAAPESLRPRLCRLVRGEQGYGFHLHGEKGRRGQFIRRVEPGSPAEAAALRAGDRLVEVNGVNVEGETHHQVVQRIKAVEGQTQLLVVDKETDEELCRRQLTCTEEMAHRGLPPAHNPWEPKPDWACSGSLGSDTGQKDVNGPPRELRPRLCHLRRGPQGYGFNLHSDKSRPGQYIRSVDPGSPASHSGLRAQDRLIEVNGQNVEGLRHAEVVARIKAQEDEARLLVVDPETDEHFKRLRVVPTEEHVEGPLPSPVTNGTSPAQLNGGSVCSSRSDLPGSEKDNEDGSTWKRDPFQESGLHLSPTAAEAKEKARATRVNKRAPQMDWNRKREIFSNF
UniProt P26040: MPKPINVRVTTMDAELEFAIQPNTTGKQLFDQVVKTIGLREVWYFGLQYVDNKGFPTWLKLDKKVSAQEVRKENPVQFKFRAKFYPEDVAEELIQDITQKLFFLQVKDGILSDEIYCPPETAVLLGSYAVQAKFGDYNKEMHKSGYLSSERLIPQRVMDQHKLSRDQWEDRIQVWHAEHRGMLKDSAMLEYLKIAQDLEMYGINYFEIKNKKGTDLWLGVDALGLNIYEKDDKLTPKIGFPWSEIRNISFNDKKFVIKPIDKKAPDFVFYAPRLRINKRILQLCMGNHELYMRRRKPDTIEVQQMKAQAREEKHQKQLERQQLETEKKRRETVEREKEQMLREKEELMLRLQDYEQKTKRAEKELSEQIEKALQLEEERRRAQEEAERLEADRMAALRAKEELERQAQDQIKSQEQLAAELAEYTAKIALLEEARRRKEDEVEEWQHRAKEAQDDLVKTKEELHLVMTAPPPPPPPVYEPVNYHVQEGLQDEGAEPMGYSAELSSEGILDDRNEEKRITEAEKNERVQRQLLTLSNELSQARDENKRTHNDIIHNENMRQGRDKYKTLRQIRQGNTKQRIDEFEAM

These are yes or no findings as the source states them, for the method shown. For part of these data: In cells and extracts the contact can be indirect. Some entries that bind do so weakly or less than the wild type. Where a sequence is shown, tags or fusion partners need not be part of it.

Test [1] deals with T1, Schip1 most C-terminal coiled-coil domain (amino-acids 398-459), Gal4 DNA-binding domain fusion bait (mouse) (UniProt P0DPB4).
T1 sequence: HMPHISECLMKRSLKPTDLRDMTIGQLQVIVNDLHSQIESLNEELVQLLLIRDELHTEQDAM
Put plainly: two-hybrid; yeast two-hybrid screen of a mouse kidney glomerulus cDNA library with a Gal4 DNA-binding domain bait; selective drop-out medium; 32 clones sequenced.

The target in test [2] is T2, Myc-tagged Schip1 (transfected HEK293 cells) (mouse) (UniProt P0DPB4).
T2 sequence: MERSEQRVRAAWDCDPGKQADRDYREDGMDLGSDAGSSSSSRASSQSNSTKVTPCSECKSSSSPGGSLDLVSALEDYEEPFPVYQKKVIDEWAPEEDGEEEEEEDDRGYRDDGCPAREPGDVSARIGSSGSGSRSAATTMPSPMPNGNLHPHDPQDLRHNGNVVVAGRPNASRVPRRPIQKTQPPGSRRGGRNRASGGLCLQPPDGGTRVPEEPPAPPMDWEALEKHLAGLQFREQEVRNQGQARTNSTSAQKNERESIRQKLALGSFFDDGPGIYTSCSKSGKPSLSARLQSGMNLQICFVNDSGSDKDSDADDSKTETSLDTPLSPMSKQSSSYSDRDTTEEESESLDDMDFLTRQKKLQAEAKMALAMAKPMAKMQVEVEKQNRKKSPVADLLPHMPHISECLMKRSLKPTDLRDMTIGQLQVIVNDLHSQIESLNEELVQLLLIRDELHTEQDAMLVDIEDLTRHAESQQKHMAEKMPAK
In words: co-IP; lysates of transiently cotransfected HEK293 cells; 0.5% Triton X-100, 20 mM Tris-HCl pH 7.4, 150 mM NaCl; primary antibody overnight, protein A+G agarose beads 1 h at 4°C.

In test [3] the target is Flag-tagged Nherf2 (transfected HEK293 cells) (mouse) (UniProt Q9JHL1). Described as above.

On to “full-length Nherf2 (prey clone from a mouse kidney glomerulus cDNA library) (from UniProt Q9JHL1 1-337)”, for which the binding entry in test [1] was “binds”.

As for “ezrin (transfected HEK293 cells) (from UniProt P26040 1-586)”, in test [2], the binding entry is “binds”.

B1: Myc-tagged Schip1 (transfected HEK293 cells) (protein, UniProt P0DPB4 1-484)
chain: T2 sequence
As to B1, the binding entry in test [3] is reported as “binds”.
